# From article PMC6077249, “Insights into Centromere DNA Bending Revealed by the Cryo-EM Structure of the Core Centromere Binding Factor 3 with Ndc10”
# Legend:
# [1] = tested on: Ctf13 R307A-R308A-R330A + Skp1 + Cep3ΔN K265A-K364A; test: EMSA; conditions: DNA 1.6 uM, weaker than Ctf13 triple mutant complex; EMSA: 25 mM HEPES pH 8.0, 200 mM KCl, 2 mM DTT, 10% glycerol, 0.02% NP-40, 10 mM MgCl2, 10 uM ZnCl2; room temperature 45 min; native PAGE at 4 C; recombinant protein; protein details: C-terminal CBP,N-terminal His; label: fluorescent label, singly or doubly labeled
# [2] = tested on: Ctf13 R307A-R308A-R330A + Skp1 + Cep3ΔN; test: EMSA; conditions: DNA 1.6 uM; EMSA: 25 mM HEPES pH 8.0, 200 mM KCl, 2 mM DTT, 10% glycerol, 0.02% NP-40, 10 mM MgCl2, 10 uM ZnCl2; room temperature 45 min; native PAGE at 4 C; recombinant protein; protein details: C-terminal CBP,N-terminal His; label: fluorescent label, singly or doubly labeled
sequence,measurement,setting,value
AATATTAGTGTATTTGATTTCCGAAAGTTAAA (double strand) [CDEIII labeled],binding result,[1],binds more weakly
same,binding result,[2],binds more weakly

# For at least one entry, the source does not settle the construct or the ends of the probe. A weaker result is weaker than the reference pair of the same experiment.
